In PubChem BioAssay AID1259415 (National Center for Advancing Translational Sciences (NCATS), 2018):
Hit rate of the full screen: of about 410,000 compounds, about 18,000 (4.4%) were called active. This list was built around the results that the source calls inconclusive (neither active nor inactive); the mix of calls is not that of the screen. Cut-off read from the data, not from the text of the source: active = activity change below about -60%; inconclusive = no clear call, values can overlap the other calls; inactive = above about -39%.
% is set by controls: 0 for no effect and ±100 for the full control effect.

Test: qHTS Assay for inhibitors of the human cytomegalovirus (HCMV)
Conditions: HFF cells, HCMV-luciferase reporter, 72 h; at 57.5 µM; stronger effect = lower value
How it was run: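 Inhibition of viral replication was scored as loss of reporter luminescence in HFFs infected with HCMV-luciferase (MOI 1 PFU/cell) for 72 h; compounds tested at 2 doses, normalized to buffer and Salinomycin controls.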
With CN(C)c1ncnc2c1ncn2[C@H]1CN(Cc2ccco2)C[C@@H](CO)O1 the activity change, negative = inhibition was inactive: 13.4%.
With CC(=O)c1ccc(NS(=O)(=O)c2ccc3c(c2)N(C)CCO3)cc1 the activity change, negative = inhibition was inconclusive: -44.1%.
With CC1(C)CC2CC(C)(CN2S(=O)(=O)c2ccccc2[N+](=O)[O-])C1 (stereo not given) the activity change, negative = inhibition was inactive: -26.6%.
In the case of CN(C(=O)c1coc(=O)c2ccccc12)c1ccccc1Cl, the activity change, negative = inhibition is reported as inactive: -38.4%.
In the case of CN(CC(=O)Nc1cccc([N+](=O)[O-])c1)S(=O)(=O)c1ccccc1, the activity change, negative = inhibition is reported as inconclusive: -52.3%.
With Cc1ccc(Cl)c(OCC(=O)Nc2ccccc2N2CCCCC2)c1 the activity change, negative = inhibition was inconclusive: -43.1%.
In the case of CC(=O)c1ccc(-c2cnc3c(NC=O)cc(-c4ccccc4Oc4ccccc4)cn23)cc1, the activity change, negative = inhibition is reported as inactive: -23.4%.
With CC(C)CCNc1nc2c(c(=O)[nH]c(=O)n2C)n1CC(O)COC(C)C (stereo not given) the activity change, negative = inhibition was active: -65.6%.
In the case of Nc1nnc(SCCCC(=O)c2ccc(Br)cc2)s1, the activity change, negative = inhibition is reported as inconclusive: -41.5%.
For O=C1N/C(=N\N=C\c2cccs2)SC1Cc1cccc(Cl)c1Cl (stereo not given), the activity change, negative = inhibition was inconclusive: -47.1%.
For CCOC(=O)COc1coc(CN2CCN(c3cccc(Cl)c3)CC2)cc1=O, the activity change, negative = inhibition was inconclusive: -43.5%.
With Cn1c(CCN2CCOCC2)nc2cc(NC(=O)COc3ccc(Cl)cc3)ccc21 the activity change, negative = inhibition was inconclusive: -48%.
In the case of Cc1cccc(NC(=O)C2CCCN(S(=O)(=O)c3c(C)nn(C)c3C)C2)n1 (stereo not given), the activity change, negative = inhibition is reported as inconclusive: -45.7%.
For CC1=NN(c2ccccc2)C(=O)C1C(=S)SC1CC(=O)NC1=O (stereo not given), the activity change, negative = inhibition was active: -87.7%.
With C#CCNC(=O)C1=C[C@@H](c2ccc(C#C)cc2)C[C@@H](OCc2ccc(CO)cc2)O1 the activity change, negative = inhibition was inconclusive: -49.8%.
For CC(=O)N1c2ccc(S(=O)(=O)N3CCC(C(=O)NCc4ccc(C)cc4)CC3)cc2CC1C (stereo not given), the activity change, negative = inhibition was inconclusive: -48.5%.
With CCC(C)c1ccc(S(=O)(=O)Nc2cccnc2)cc1 (stereo not given) the activity change, negative = inhibition was inconclusive: -49.8%.
For O=C(Nc1ccc(CSc2ccccc2)cc1)c1ccc(CN2CCOCC2)cc1, the activity change, negative = inhibition was active: -79.7%.
In the case of CC(=O)c1ccc(NC(=O)COC(=O)c2ccccc2Nc2ccccc2)cc1, the activity change, negative = inhibition is reported as inconclusive: -43.3%.
In the case of Cc1ccc(C)c(NC(=O)N2CCN(C(=O)c3nsc4ccccc34)CC2)c1, the activity change, negative = inhibition is reported as inconclusive: 0%.
With CCOC(=O)C1CCCN(S(=O)(=O)c2c(C(=O)N3CCCCC3)c(C)n(C)c2C)C1 (stereo not given) the activity change, negative = inhibition was inactive: -14%.
For COc1ccc(OC(C)C(=O)Nc2ccccc2F)cc1 (stereo not given), the activity change, negative = inhibition was inconclusive: -45.7%.
With CC1CC(=O)c2cnc(NCC3CCCO3)nc2C1 (stereo not given) the activity change, negative = inhibition was inactive: -0.306%.
In the case of CSCCC(NC(=O)c1ccccc1)C(=O)OCC(=O)c1ccc[nH]1 (stereo not given), the activity change, negative = inhibition is reported as inconclusive: -41.7%.
In the case of O=C(CNC1CCN(Cc2ccccc2)CC1)Nc1ccc(S(=O)(=O)N2CCCCC2)cc1, the activity change, negative = inhibition is reported as inconclusive: -47.1%.
For C#CC[N+](C)(C)CC#Cc1ccccc1, the activity change, negative = inhibition was inconclusive: -49.1%.
For COc1cc(C)c2sc3ccccc3c(=O)c2c1NCCN(C)C, the activity change, negative = inhibition was inconclusive: -42.6%.
With CCCCC(=O)N(C)c1c(CC)nc2c(OCc3ccc(C#N)cc3)cccn12 the activity change, negative = inhibition was inconclusive: -46.2%.
In the case of NC(=O)c1cccc2cc3ccccc3cc12, the activity change, negative = inhibition is reported as inconclusive: -42.6%.
For Cn1ccnc1SCC(=O)c1c[nH]c2ccccc12, the activity change, negative = inhibition was inactive: 81.9%.
For CC1CCCN(C(=O)CSc2c3c(nc4cc(Cl)ccc24)CCCC3)C1 (stereo not given), the activity change, negative = inhibition was inactive: -38.7%.
In the case of O=C(Nc1nnc(S(=O)(=O)N2CCCc3ccccc32)s1)c1cccc(Cl)c1, the activity change, negative = inhibition is reported as inconclusive: -40.6%.
With CCc1ccc(NC(=O)CSc2nc(=O)n(Cc3ccccn3)c3c2CCC3)cc1 the activity change, negative = inhibition was inconclusive: -46.5%.
For CC[C@H](C)[C@H]1CNC(=S)N1CC1CCN(CC)CC1, the activity change, negative = inhibition was inactive: 12%.
For COC(=O)c1ccc(C2c3c(-c4ccccc4O)n[nH]c3C(=O)N2Cc2cccnc2)cc1 (stereo not given), the activity change, negative = inhibition was inactive: 4.63%.
For COc1ccc(N2CCN(C(=O)Oc3ccc([N+](=O)[O-])cc3)CC2)cc1, the activity change, negative = inhibition was inactive: 5.39%.
In the case of CC(C(=O)NCc1ccc(F)cc1)n1ccc2cc(S(=O)(=O)N3CCCC3)ccc21 (stereo not given), the activity change, negative = inhibition is reported as inactive: -28.4%.
In the case of O=C(CN(c1ccc(F)cc1)S(=O)(=O)c1ccc2c(c1)OCCO2)Nc1ccccc1, the activity change, negative = inhibition is reported as inconclusive: -49.4%.
For CC1CCc2c(sc3nc(CSc4ncn[nH]4)[nH]c(=O)c23)C1 (stereo not given), the activity change, negative = inhibition was inactive: -26.7%.
For O=C(NCc1ccco1)Nc1ccc(Br)cc1, the activity change, negative = inhibition was inactive: -28.5%.
With COc1cc(C(O)c2nc(-c3csc4ccccc34)cs2)ccc1F (stereo not given) the activity change, negative = inhibition was inactive: 16.3%.
For Cc1cc(OCCCCCNCCO)cc(C)c1Cl, the activity change, negative = inhibition was inconclusive: -44.1%.
With CCc1ccc(OC(=O)Cc2ccc(OC)c(S(=O)(=O)N3CCOCC3)c2)cc1 the activity change, negative = inhibition was active: -97.5%.
With COc1ccc(-c2[nH]ncc2CN(CCO)CC23CC4CC(CC(C4)C2)C3)c(OC)c1 the activity change, negative = inhibition was inconclusive: -41.7%.
In the case of CCc1ccccc1NS(=O)(=O)c1cc2c3c(c1)CCN3C(=O)CC2, the activity change, negative = inhibition is reported as inactive: -19.9%.
With Cc1ccc(C)c(NC(=O)CSc2nc3ccc(N4C(=O)c5ccccc5C4=O)cc3s2)c1 the activity change, negative = inhibition was inactive: -11.6%.
In the case of Cc1ccc2nc(N(CCCN(C)C)C(=O)c3sc4ccccc4c3Cl)sc2c1, the activity change, negative = inhibition is reported as active: -77.8%.
In the case of COc1ccc(C2SCC(=O)N2c2nc3ccccc3s2)cc1 (stereo not given), the activity change, negative = inhibition is reported as inconclusive: -51.7%.
With COc1ccccc1/C=C/C(=O)Nc1cccc(C(C)=O)c1 the activity change, negative = inhibition was inactive: 1.17%.
In the case of CCOC(=O)C1=C[C@@H](C(C)C)N(S(=O)(=O)c2ccc([N+](=O)[O-])cc2)[C@H]1c1ccccc1, the activity change, negative = inhibition is reported as inconclusive: -53.6%.
With CCn1c(N)[n+](CC(=O)Nc2ccc(SC(F)F)cc2)c2ccccc21 the activity change, negative = inhibition was inconclusive: -54.8%.
In the case of Cc1cc(C)c2c(c1)cc(C)c1nnc(SCC(=O)Nc3ccc(S(=O)(=O)N4CCCCC4)cc3)n12, the activity change, negative = inhibition is reported as inconclusive: -51.2%.
In the case of CCNc1nc2c(c(=O)[nH]c(=O)n2C)n1CC(O)COc1ccc(Cl)cc1Cl (stereo not given), the activity change, negative = inhibition is reported as inconclusive: -59.1%.
For COc1ccc(NC(=O)[C@@H]2CC=C[C@@H]3CCN(Cc4ccc(Cl)c(Cl)c4)C(=O)[C@@H]32)cc1, the activity change, negative = inhibition was inconclusive: -47.6%.
For CCOc1ccc(NC(=O)[C@H](Cc2ccccc2)NC(=O)C2CCNCC2)cc1, the activity change, negative = inhibition was inconclusive: -41.4%.
